Experimental data published in the supplement of paper PMC7877785.
± gives the uncertainty stated by the source. Many entries were measured with a wide error.

Test: self-splicing fitness, log relative to wild type (ln ratio); higher = more splicing; Tetrahymena group I intron in knt gene, E. coli kanamycin selection, DiMSum; sequences stand for … in CUCUCU…GGAGGGAAAAGUUAUCAGGCAUGCACCUGGUAGCUAGUCUUUAAACCAAUAGAUUGCAUCGGUUUAAAAGGCAAGACCGUCAAAUUGCGGGAAAGGGGUCAACAGCCGUUCAGUACCAAGUCUCAGGGGAAACUUUGAGAUGGCCUUGCAAAGGGUAUGGUAAUAAGCUGACGGACAUGGUCCUAACCACGCAGCCAAGUCCUAAGUCAACAGAUCUUCUGUUGAUAUGGAUGCAGUUCACAGACUAAAUGUCGGUCGGGGAAGAUGUAUUCUUCUCAUAAGAUAUAGUCGGACCUCUCCUUAAUGGGAGCUAGCGGAUGAAGUGAUGCAACACUGGAGCCGCUGGGAACUAAUUUGUAUGCGAAAGUAUAUUGAUUAGUUUUGGAGUACUCGUGGUCG
How it was run: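 Pooled colonies went to amplicon sequencing on an Illumina HiSeq 2500 after six replicate transformations. The plates were LB agar with 100 μg/mL carbenicillin, 50 μM IPTG and 0.2% rhamnose, with or without 25 μg/mL kanamycin, incubated overnight at 37°C or 30°C. The E. coli BL21(DE3) library had all eight P1ex-region intron nucleotides randomised, the intron placed in the knt kanamycin-resistance gene on pET-22b(+). DiMSum fitness is the error-weighted combination of replicate fold changes, kanamycin against none, normalised to wild type.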

CGUGAGCAAUAUUACGAGUC
self-splicing fitness (ln) (30 °C): -4.7 ± 1 | self-splicing fitness (ln) (37 °C): -3.08 ± 0.74

GGAGAGCAAUAUUACGUUGU
self-splicing fitness (ln) (30 °C): -4.01 ± 0.19 | self-splicing fitness (ln) (37 °C): -3.77 ± 0.24

UCCGAGCAAUAUUACGUAAC
self-splicing fitness (ln) (30 °C): -4.49 ± 1

AGGUAGCAAUAUUACGGAAC
self-splicing fitness (ln) (30 °C): -3.629 ± 0.035 | self-splicing fitness (ln) (37 °C): -2.2 ± 0.042

CUUGAGCAAUAUUACGUGGC
self-splicing fitness (ln) (30 °C): -4.95 ± 0.59

UUGUAGCAAUAUUACGCUUC
self-splicing fitness (ln) (30 °C): -3.08 ± 0.74 | self-splicing fitness (ln) (37 °C): -1.8 ± 0.83

UGAGAGCAAUAUUACGUUUU
self-splicing fitness (ln) (30 °C): -4.66 ± 0.59 | self-splicing fitness (ln) (37 °C): -3.29 ± 0.6

UGAGAGCAAUAUUACGCUUA
self-splicing fitness (ln) (30 °C): -2.73 ± 0.56

UCUGAGCAAUAUUACGUGCC
self-splicing fitness (ln) (30 °C): -3.52 ± 0.74

UGAAAGCAAUAUUACGCCAC
self-splicing fitness (ln) (30 °C): -2.91 ± 1.1

UAAGAGCAAUAUUACGAGAA
self-splicing fitness (ln) (30 °C): -1.99 ± 0.71

AAAUAGCAAUAUUACGAUUG
self-splicing fitness (ln) (30 °C): -2.16 ± 0.15 | self-splicing fitness (ln) (37 °C): -1.31 ± 0.18

UUAGAGCAAUAUUACGCCGU
self-splicing fitness (ln) (30 °C): -2.72 ± 0.53 | self-splicing fitness (ln) (37 °C): -1.21 ± 0.68

CAUUAGCAAUAUUACGAAAC
self-splicing fitness (ln) (30 °C): -3.7 ± 0.61 | self-splicing fitness (ln) (37 °C): -1.04 ± 0.51

GCCCAGCAAUAUUACGGAGC
self-splicing fitness (ln) (30 °C): -4.06 ± 0.39 | self-splicing fitness (ln) (37 °C): -2.17 ± 0.34

UGCGAGCAAUAUUACGGAAU
self-splicing fitness (ln) (30 °C): -3.87 ± 1 | self-splicing fitness (ln) (37 °C): -3.23 ± 1

UACGAGCAAUAUUACGGGCU
self-splicing fitness (ln) (30 °C): -4.87 ± 0.72

CGGAAGCAAUAUUACGCGCU
self-splicing fitness (ln) (30 °C): -3.7 ± 1 | self-splicing fitness (ln) (37 °C): -1.58 ± 0.56

GAGUAGCAAUAUUACGAAGA
self-splicing fitness (ln) (37 °C): -2.76 ± 0.54

GACAAGCAAUAUUACGCAGC
self-splicing fitness (ln) (30 °C): -4.28 ± 0.52

CUGCAGCAAUAUUACGAUAC
self-splicing fitness (ln) (37 °C): -2.83 ± 0.53

CCGAAGCAAUAUUACGCUAU
self-splicing fitness (ln) (30 °C): -3.8 ± 0.73 | self-splicing fitness (ln) (37 °C): -2.24 ± 0.25

CCGCAGCAAUAUUACGAGGU
self-splicing fitness (ln) (30 °C): -3.73 ± 0.2 | self-splicing fitness (ln) (37 °C): -1.84 ± 0.19

GGCGAGCAAUAUUACGACAA
self-splicing fitness (ln) (30 °C): -1.01 ± 0.57

CUUGAGCAAUAUUACGUACC
self-splicing fitness (ln) (30 °C): -2.93 ± 1.1 | self-splicing fitness (ln) (37 °C): -1.39 ± 0.9

CGCUAGCAAUAUUACGGGAC
self-splicing fitness (ln) (30 °C): -4.76 ± 0.51

GUUAAGCAAUAUUACGCAGC
self-splicing fitness (ln) (30 °C): -4.71 ± 0.51 | self-splicing fitness (ln) (37 °C): -2.59 ± 0.54

AGGGAGCAAUAUUACGUCGA
self-splicing fitness (ln) (30 °C): -2.36 ± 1.2 | self-splicing fitness (ln) (37 °C): -1.84 ± 0.52

UUCAAGCAAUAUUACGGAAC
self-splicing fitness (ln) (37 °C): -1.36 ± 0.5

UUGUAGCAAUAUUACGAGGG
self-splicing fitness (ln) (30 °C): -4.36 ± 0.59

ACCCAGCAAUAUUACGACGA
self-splicing fitness (ln) (30 °C): -0.509 ± 0.084 | self-splicing fitness (ln) (37 °C): -0.36 ± 0.086

CUCCAGCAAUAUUACGGCCA
self-splicing fitness (ln) (37 °C): -3.41 ± 0.59

CUGAAGCAAUAUUACGGUGC
self-splicing fitness (ln) (37 °C): -2.6 ± 0.62

AACGAGCAAUAUUACGGAGU
self-splicing fitness (ln) (30 °C): -5.7 ± 0.71

UGUGAGCAAUAUUACGCCUU
self-splicing fitness (ln) (37 °C): -1.47 ± 0.87

GAGCAGCAAUAUUACGAAUC
self-splicing fitness (ln) (30 °C): -2.08 ± 0.07 | self-splicing fitness (ln) (37 °C): -1.22 ± 0.083

CUCGAGCAAUAUUACGUAUA
self-splicing fitness (ln) (30 °C): -3.81 ± 1

GUUCAGCAAUAUUACGUGCU
self-splicing fitness (ln) (30 °C): -4.43 ± 0.72

CGGGAGCAAUAUUACGUACC
self-splicing fitness (ln) (30 °C): -3.7 ± 0.78 | self-splicing fitness (ln) (37 °C): -1.37 ± 0.62

CAUCAGCAAUAUUACGCAAC
self-splicing fitness (ln) (30 °C): -3.89 ± 0.51

UUAGAGCAAUAUUACGCGGC
self-splicing fitness (ln) (30 °C): -3.03 ± 0.67

UAGAAGCAAUAUUACGAAAC
self-splicing fitness (ln) (30 °C): -3.99 ± 0.52 | self-splicing fitness (ln) (37 °C): -2.39 ± 0.55

ACCAAGCAAUAUUACGGACG
self-splicing fitness (ln) (30 °C): -1.09 ± 0.069 | self-splicing fitness (ln) (37 °C): -0.0232 ± 0.083

UCGUAGCAAUAUUACGGAGU
self-splicing fitness (ln) (37 °C): -3.16 ± 1

CUAGAGCAAUAUUACGGUUU
self-splicing fitness (ln) (37 °C): -4.09 ± 0.51

CAUUAGCAAUAUUACGAUGC
self-splicing fitness (ln) (30 °C): -4.85 ± 0.59

GGCGAGCAAUAUUACGGGGU
self-splicing fitness (ln) (37 °C): -3.55 ± 1

AACCAGCAAUAUUACGAAGA
self-splicing fitness (ln) (30 °C): -2.02 ± 0.081 | self-splicing fitness (ln) (37 °C): -0.639 ± 0.082

AUAGAGCAAUAUUACGUGAU
self-splicing fitness (ln) (30 °C): -2.02 ± 0.12 | self-splicing fitness (ln) (37 °C): -0.825 ± 0.17

ACGAAGCAAUAUUACGAGAC
self-splicing fitness (ln) (37 °C): -3.33 ± 1

CCGUAGCAAUAUUACGAGCC
self-splicing fitness (ln) (30 °C): -3.71 ± 0.6

GGGGAGCAAUAUUACGGAGU
self-splicing fitness (ln) (37 °C): -1.38 ± 0.87

GGUAAGCAAUAUUACGGCCA
self-splicing fitness (ln) (37 °C): -1.67 ± 0.68

UUGGAGCAAUAUUACGGACC
self-splicing fitness (ln) (30 °C): -3.8 ± 0.52

UAGUAGCAAUAUUACGUCAG
self-splicing fitness (ln) (30 °C): -3.46 ± 0.74

CGUUAGCAAUAUUACGCCGA
self-splicing fitness (ln) (37 °C): -1.29 ± 1.2

AGUCAGCAAUAUUACGCGGG
self-splicing fitness (ln) (30 °C): -2.8 ± 0.16 | self-splicing fitness (ln) (37 °C): -1.06 ± 0.2

UUUGAGCAAUAUUACGGCUU
self-splicing fitness (ln) (30 °C): -2.9 ± 0.61 | self-splicing fitness (ln) (37 °C): -2.86 ± 0.61

CCUUAGCAAUAUUACGACCC
self-splicing fitness (ln) (37 °C): -2.28 ± 0.78
